US20230416352A1
Numbering of substitutions follows the chain as printed. Results are given in words; binding and its absence hold for the method and conditions named. A result given as binding can be weak or reduced; the word gives no strength. Each block holds one binder with its values, some of them ahead of it.

By UniProt entry, the sequences of proteins in these tests, tags left out. Where a name states a change or a piece, a line headed by the entry shows the natural chain unless it says otherwise.
UniProt P29279: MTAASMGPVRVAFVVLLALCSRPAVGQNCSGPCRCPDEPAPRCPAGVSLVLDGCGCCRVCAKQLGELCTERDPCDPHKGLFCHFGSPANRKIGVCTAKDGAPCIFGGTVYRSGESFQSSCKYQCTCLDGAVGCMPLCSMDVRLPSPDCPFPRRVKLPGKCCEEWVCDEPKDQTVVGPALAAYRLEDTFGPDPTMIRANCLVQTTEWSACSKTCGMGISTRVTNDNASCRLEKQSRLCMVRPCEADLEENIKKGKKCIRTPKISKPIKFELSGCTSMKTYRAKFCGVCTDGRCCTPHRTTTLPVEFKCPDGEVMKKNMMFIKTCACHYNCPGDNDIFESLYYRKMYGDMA

Target: human CTGF (antigen of the Biacore assays) (human) (UniProt P29279)
Test: SPR (Biacore)

binding: binds
B2: Hu147-31wk (antibody, human IgG1, kappa, V domains shown)
VH: EVQLVESGGGLVQPGGSLRLSCAASGFSFNTYAMNWVRQAPGKGLEWVARIRTKSNNYATYYADSVKDRFTISRDDSESSLYLQMNSLKTEDTAVYYCVETGFAYWDQGTLVTVSS
VL: EIVLTQSPATLSLSPGERATLSCSASSSVSYMHWFQQKPGQSPRLLIYSTSNLASGIPARFSGSGSGTDYTLTISSLEPEDFAVYYCQQRSSYPLTFGQGTKLEIKR

binding: binds
B5: Hu147-32wk (antibody, human IgG1, kappa, V domains shown)
VH: B2 VH
VL: B2 VL with R44K

binding: binds
B7: Hu147-34wk (antibody, human IgG1, kappa, V domains shown)
VH: B2 VH
VL: DIQMTQSPSSLSASVGDRVTITCSASSSVSYMHWFQQKPGKSPKLLIYSTSNLASGVPSRFSGSGSGTDYTLTISSLQPEDFATYYCQQRSSYPLTFGQGTKLEIKR

binding: binds
B8: Hu147-33wk (antibody, human IgG1, kappa, V domains shown)
VH: B2 VH
VL: B2 VL with R44K, L46W, I57V

binding: binds
B18: Hu164-57wl (antibody, human IgG1, lambda, V domains shown)
VH: EVTLKESGPVLVKPTETLTLTCTVSGFSLSTFGVHWIRQPPGKALEWLAVIWRRGGTDYNAAFMSRLTISKDTSKSQVVLTMTNMDPVDTATYYCARDGGFDYWGQGTTVTVSS
VL: ETVVTQEPSLTVSPGGTVTLTCRSSIGAVTTSNYANWVQQKPGQAFRGLIGGTSNRAPWTPARFSGSLLGGKAALTLSGVQPEDEAEYYCALWYSTHYVFGGGTKLTVLG

binding: binds
B19: Hu164-69wl (antibody, human IgG1, lambda, V domains shown)
VH: B18 VH with A44G, A49G, L80F
VL: ESVVTQPPSVSGAPGQRVTISCRSSIGAVTTSNYANWVQQLPGTAFKGLIGGTSNRAPGVPDRFSGSKSGTSASLAITGLQAEDEADYYCALWYSTHYVFGGGTKLTVLG

binding: binds
B20: Hu164-77wl (antibody, human IgG1, lambda, V domains shown)
VH: EVQLQESGPGLVKPSQTLSLTCTVSGFSISTFGVHWIRQHPGKGLEWIGVIWRRGGTDYNAAFMSRVTISKDTSKNQVSLKLSSVTAADTAVYYCARDGGFDYWGQGTTVTVSS
VL: B18 VL

binding: binds
B21: Hu164-87wl (antibody, human IgG1, lambda, V domains shown)
VH: B20 VH with I48L, V67L, L80F
VL: B18 VL

binding: binds
B22: Hu164-68wl (antibody, human IgG1, lambda, V domains shown)
VH: B18 VH with A44G, A49G, L80F
VL: ETVVTQEPSFSVSPGGTVTLTCRSSIGAVTTSNYANWVQQTPGQAFRGLIGGTSNRAPGVPDRFSGSILGNKAALTITGAQADDESDYYCALWYSTHYVFGGGTKLTVLG

The remaining lines, values behind:

B1: Ch147 (antibody, human IgG1, kappa, V domains shown)
VH: B2 VH with G15E, R19K, S80M, S87N, V95M, S116A
VL: QIVLTQSPAIMSASPGEKVTITCSASSSVSYMHWFQQKPGTSPKLWIYSTSNLASGVPARFSGSGSGTSYSLTISRMEAEDAATYYCQQRSSYPLTFGAGTKLELKR
binding: binds

B3: Hu147-21wk (antibody, human IgG1, kappa, V domains shown)
VH: B2 VH with S28T, E78K, S79N
VL: B2 VL
binding: binds

B4: Hu147-23wk (antibody, human IgG1, kappa, V domains shown)
VH: B2 VH with S28T, E78K, S79N
VL: B2 VL with R44K, L46W, I57V
binding: binds

B6: Hu147-22wk (antibody, human IgG1, kappa, V domains shown)
VH: B2 VH with S28T, E78K, S79N
VL: B2 VL with R44K
binding: binds

B9: Hu147-11wk (antibody, human IgG1, kappa, V domains shown)
VH: B2 VH with S28T, N30S, A49G, E78K, S79N
VL: B2 VL
binding: binds

B10: Hu147-14wk (antibody, human IgG1, kappa, V domains shown)
VH: B2 VH with S28T, N30S, A49G, E78K, S79N
VL: B7 VL
binding: binds

B11: Hu147-13wk (antibody, human IgG1, kappa, V domains shown)
VH: B2 VH with S28T, N30S, A49G, E78K, S79N
VL: B2 VL with R44K, L46W, I57V
binding: binds

B12: Hu147-12wk (antibody, human IgG1, kappa, V domains shown)
VH: B2 VH with S28T, N30S, A49G, E78K, S79N
VL: B2 VL with R44K
binding: binds

B13: Hu95-21wk (antibody, human IgG1, kappa, V domains shown)
VH: EVQLVQSGAEVKKPGASVKVSCKASGFTFTNYDIHWVRQAPGQRLEWIGLVYPYNGGTAYNQKFKDRATLTFDTSASTAYMELSSLRSEDTAVYYCARWGLIPGTTSYFDVWGQGTTVTVSS
VL: EIVLTQSPATLSLSPGERATLSCRASSSVSYIHWYQQKPGQAPRPWIYATSNLASGIPARFSGSGSGTDYTLTISRLEPEDFAVYYCQQWNSNPWTFGGGTKVEIKR
binding: binds

B14: Hu95-41wk (antibody, human IgG1, kappa, V domains shown)
VH: B13 VH with R38K, R67K
VL: B13 VL
binding: binds

B15: Hu95-51yk (antibody, human IgG1, kappa, V domains shown)
VH: B13 VH with K23R, D33A, R38K, I48M, N55T, R67K, A68V, L101M, T106N
VL: B13 VL
binding: binds

B16: Hu95-31wk (antibody, human IgG1, kappa, V domains shown)
VH: B13 VH with R38K, I48M, R67K, A68V
VL: B13 VL
binding: binds

B17: Hu95-42wk (antibody, human IgG1, kappa, V domains shown)
VH: B13 VH with R38K, R67K
VL: B13 VL with A42S, I57V, D69S
binding: binds
